{"source": "patent US20240110202A1", "about": "“Advanced Cell-Permeable Peptide Carriers” (MUSC FOUNDATION FOR RESEARCH DEVELOPMENT, priority 2020, published 2024)", "key": {"[1]": {"test_system": "siCIP2A", "test": "siRNA binding assay (gel-shift)", "details": "Peptide:siRNA molar ratios of 1:1 through 20:1", "description": "Afterwards, the samples were electrophoresed on a 4% agarose gel and stained with ethidium bromide. Free siCIP2A was used as a normalizing control. An Ultra-Low Range DNA Ladder (Thermo Fisher Scientific, Waltham, MA) was used as a MW marker. Resulting siCIP2A bands were imaged and quantified using a G:Box Chemi XX6 and GeneSys image capture software (Syngene, Frederick, MD), respectively."}, "[2]": {"test": "Physicochemical measurements (Zetasizer) of peptide-siCIP2A complexes", "details": "complex with siCIP2A at 50:1 Peptide:siRNA molar (12.5 N/P) ratio in water"}, "[3]": {"test": "Serum protection assay", "assay_type": "in vitro ADME", "details": "siCIP2A, 50:1, 50% human serum, 1 hour at 37° C.", "protocol": "Afterwards, complexes were either treated or untreated with 50% human serum (final concentration; VWR, Radnor, PA) for 1 hour at 37° C., followed by denaturation with 4% SDS. Next, the samples were electrophoresed on a 4% agarose gel and resulting siCIP2A bands were imaged and quantified, as described above."}, "[4]": {"test_system": "siCIP2A", "test": "siRNA release assay (heparin competition)", "details": "50:1 complexes", "protocol": "Afterwards complexes were incubated with either 0, 0.1, 0.5, 1.0, 2.0, 5.0 or 10 μg heparin (Millipore Sigma, St. Louis, MO) for 30 minutes at RT. The samples were then electrophoresed on a 4% agarose gel and resulting siCIP2A bands were imaged and quantified, as described above."}, "[5]": {"test_system": "CIP2A mRNA", "test": "CIP2A silencing in cells, real-time PCR", "assay_type": "cell-based, human", "details": "CAL 27 cells, 50:1, 48 hours", "protocol": "CAL 27 cells, grown to a confluency of 60% on 24-well plates, were rinsed three times with Opti-MEM. […] Afterwards, the complexes were added to the cells at a siRNA concentration of 125 nM and incubated for 4 hours at 37° C. with 5% CO2, prior to adjusting the siRNA and FBS concentrations to 100 nM and 10%, respectively, with the addition of 50% FBS/Opti-MEM media. 48 hours post-treatment, the total RNA or protein was harvested for subsequent real-time PCR and Western blot analyses.\nTotal RNA was harvested using the RNeasy Mini Kit (Qiagen, Germantown, MD). RNA was then reverse transcribed using the High-Capacity cDNA Reverse Transcription Kit (Thermo Fisher Scientific) in a Bio-Rad (Hercules, CA) T100 Thermal Cycler. Next, quantitative real-time PCR was performed in an Applied Biosystems™ StepOnePlus™ Real-Time PCR machine (Thermo Fisher Scientific) using the TaqMan™ Fast Advanced Master Mix (Thermo Fisher Scientific) and predesigned TaqMan™ Gene Expression Assays (Thermo Fisher Scientific) for CIP2A (Hs00405413_m1) and 18S (4319413E), according to the manufacturer's instructions."}}}
{"sequence": "GLFEAIEGFIENGWEGMIDGWYGGGGRRRRRRRRRK [All-L]", "values": [{"measurement": "siRNA binding compared to 599", "setting": "[1]", "value": "largely no significant changes in siRNA binding relative to 599"}, {"measurement": "PDI (Polydispersity index)", "setting": "[2]", "value": 0.327}, {"measurement": "Particle Size", "setting": "[2]; mean hydrodynamic size, dynamic light scattering, ± SD, three experiments", "value": "190.2 ± 82.4", "unit": "nm"}, {"measurement": "Zeta Potential", "setting": "[2]; mean ± SD, three experiments", "value": "39.4 ± 7.3", "unit": "mV"}, {"measurement": "ability to protect siRNAs in the presence of serum, compared to 599", "setting": "[3]", "value": "unstable in serum compared to 599-siRNA complexes"}, {"measurement": "siRNA release compared to 599", "setting": "[4]; 0-10 μg heparin, 30 minutes at RT", "value": "poor siRNA release"}, {"measurement": "complexed siRNAs (maximally) released", "setting": "[4]; increasing heparin, maximal at 4-fold excess and higher (≥2 μg; ≥120 pmol) of heparin", "value": "~70", "unit": "%"}, {"measurement": "gene silencing in comparison to 599 / among the peptide variants", "setting": "[5]", "value": "significant enhancements in gene silencing"}, {"measurement": "enhancement (improvement) in gene silencing in comparison to 599", "setting": "[5]; fold change normalized to 599", "value": "~20", "unit": "%"}]}
